These are yes or no findings as the source states them, for the method shown. Some results given as binding are weak or reduced against the parent protein; the word gives no strength. Sequences can lack the tags named with a protein.
How the values were obtained:
[1] = biological target: T1, Saci0662ΔN, N-terminally truncated Saci0662 β-subunit (without the pro-peptide), His-tagged (S. acidocaldarius) (UniProt Q4JAY3); assay: SEC-MALS; 100 μl protein complex at 2 mg/ml, Superdex 200 10/300 Increase GL, 20 mM Tris (pH 8.0), 300 mM NaCl, 25 °C; both purified
T1 sequence: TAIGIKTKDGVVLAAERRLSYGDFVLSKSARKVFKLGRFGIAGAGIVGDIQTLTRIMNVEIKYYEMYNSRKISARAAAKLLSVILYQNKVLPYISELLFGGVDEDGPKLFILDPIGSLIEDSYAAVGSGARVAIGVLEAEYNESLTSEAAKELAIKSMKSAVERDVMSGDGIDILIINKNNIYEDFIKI

[2] = biological target: T1, Saci0662ΔN, N-terminally truncated Saci0662 β-subunit (without the pro-peptide), His-tagged (S. acidocaldarius); assay: negative-stain transmission electron microscopy; purified 20S complexes at 0.035 mg/ml on carbon-coated grids, 2% uranyl acetate; both purified
[3] = biological target: T1, Saci0662ΔN, N-terminally truncated Saci0662 β-subunit (without the pro-peptide), His-tagged (S. acidocaldarius); assay: co-purification on Ni-NTA IMAC after co-expression; untagged Saci0613 α co-expressed in E. coli with both Saci0662ΔN (His-tagged) and Saci0909ΔN; Ni-NTA agarose IMAC (Fig. 4a lane 5)
[4] = biological target: T1, Saci0662ΔN, N-terminally truncated Saci0662 β-subunit (without the pro-peptide), His-tagged (S. acidocaldarius); assay: SEC; size exclusion chromatography of the IMAC-purified proteasome complexes; both purified

Measured: binding

B1: Saci0613 20S proteasome α-subunit, untagged (natural protein, S. acidocaldarius, UniProt Q4JB24 1-242, looked up)
chain: MALGPAAMGYDRAITIFSPDGSLYQVDYAFEAVKRGWTTLGVKTKSGVVLLAEKRKATQLLDVDGIEKIFMLDDHVGCTFAGLASDGRILIDYARSQALQHRLIYDEPISIEYLTKVISDVKQAYTQHGGVRPFGVALIVGGIDKGKQPKLLMTEPSGQFMPYYAVAIGQGGYTATEYLEKNYKEDLDIQSTILLALRALMATLKPGEKLNYSSVEIGYADVDSGTFKKLTTEERSDLLQKI
notes: 20S proteasome α-subunit, S. acidocaldarius DSM639, Saci0613; also called Saci0613 α; 0613 α-subunit; source: E. coli Rosetta (DE3) pLysS, co-expressed with β-subunit(s); in heat-clarified lysate, and purified as part of the complex (Ni-NTA IMAC, size exclusion chromatography)
binds: all assays above

B2: Saci0909ΔN, N-terminally truncated Saci0909 catalytic β-subunit (without the pro-peptide) (domain or fragment, UniProt Q4JAA8 11-203)
chain: TTTVGIKVKDGVVLAADRRASAGYYVAHKYVRKVLYVTDNIGITTAGSVADLQFIYEALKYIYHRNSITGEGPITVKGIATWLANVLSSSKYFPYLVQILIGGVDDQPRLYNLDYLGDITEEEYTATGSGSPEALGVLEDNYKPEMSLDEAAELAKRAIFSSIKRDSFTGTGVIVTKITKNGHEEKEYYITKR
binds: all assays above
